Data from patent US20250073350A1.
These are yes or no findings as the source states them, for the method shown. Some entries that bind do so weakly or less than the wild type. One block for each binder: values may come before it.

Legend:
[1] = biological target: MmPEG10, bacterially produced (mouse) (UniProt Q7TN75); assay: self-association; size exclusion and electron microscopy of protein produced in E. coli
[2] = biological target: MmPNMA3, bacterially produced (mouse) (UniProt Q8JZW8); assay: as above

binding [1]: binds
B1: MmPEG10, bacterially produced (protein, mouse, UniProt Q7TN75 1-958, looked up)
chain: MAAAGGSSNCPPPPPPPPPNNNNNNNTPKSPGVPDAEDDDERRHDELPEDINNFDEDMNRQFENMNLLDQVELLAQSYSLLDHLDDFDDDDEDDDFDPEPDQDELPEYSDDDDLELQGAAAAPIPNFFSDDDCLEDLPEKFDGNPDMLGPFMYQCQLFMEKSTRDFSVDRIRVCFVTSMLIGRAARWATAKLQRCTYLMHNYTAFMMELKHVFEDPQRREAAKRKIRRLRQGPGPVVDYSNAFQMIAQDLDWTEPALMDQFQEGLNPDIRAELSRQEAPKTLAALITACIHIERRLARDAAAKPDPSPRALVMPPNSQTDPTEPVGGARMRLSKEEKERRRKMNLCLYCGNGGHFADTCPAKASKNSPPGKLPGPAVGGPSATGPERIRSPPSEASTQHLQVMLQIHMPGRPTLFVRAMIDSGASGNFIDQDFVIQNAIPLRIKDWPVMVEAIDGHPIASGPIILETHHLIVDLGDHREILSFDVTQSPFFPIVLGIRWLSTHDPHITWSTRSIVFNSDYCRLRCRMFAQIPSNLLFTVPQPNLHPYLLHHVHPHVHPHMHQHLHQHLHQFLHPDPHQYPHPDPHYHHHQQADMQHQLQQYLYQYLYYHLYPVMHHHLPPDQHEHLHEYLHQYLHQYLHQFLHHHLHPDLHQYLYQYLHNHMNPDPHHHPHPDPPQDPHHPPHQDPHQHPDPHQDPPHQDPHQDAHQDPHMDPHLHQHQHPQPQPHPQQHPNHPQQPPFFYHMAGFRIYHPVRYYYIQNVYTPVDEHVYPGHRVVDPNIEMIPGAHSLPSGHLYSMSESEMNALRNFVDRNVKDGLMTPTVAPNGAQVLQVKRGWKLQVTYNCRAPQSGTIQNQYLRMSLPNMGDPAHLASYGEFVQVPGYPYPAYVYYTSPHMMTAWYPVGRDVHGRIIVVPVVITWSQNTNRQPPVPQYPPPQPPPPPPPPPPPPPPPPASSCSAA

binding [2]: binds
B2: MmPNMA3, bacterially produced (protein, mouse, UniProt Q8JZW8 1-466, looked up)
chain: MPLNLLQDWCRGEHLNTQRSMLILGIPEDCSEDEFEETLHEALKHLGRYRIIGRMFRREENAQAFLVELARDFDYALVPREIEGKGGPWEVVVKPPHSDDEFLNRLNHFLEEERRTVSDMNRVLGTHSNHSPTKTTISADFWVWAQTLGAVMQPLLEQMLYRELRVFSGNTISIPGLLAFDSWLEHTTEMLQMWQVPEVEKRRRLMECLRGPALQVVNVLRANNAAITVKECLEALRQVFGSVDNRKIAQLKFCKAYQEPGEKVSSFVVRLETLLQKALEKNAISRKNVNQTRLKRILGGAILSAKLREKLKMLKQRRRPPGFLALVKLFREEEEEWEATRGSERSCYEGLELGPSPSNIGSEERELFVPAFGSVLEERPYQGSRRRRHRRRGQHRKGGVPRDDSQGTRKQNYDTFCYSCGEDGHIRVHCFNPSNRTLVKQKRQAAMEKGNRSWAWEKSHPKPKTK
